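A cell-based FRET test of anthrax lethal toxin entry, tracked through the 460 nm emission signal; the cell line is not named here.
Each compound was tested as a concentration series from about 0.0005 to 40 µM.
The number is the fitted AC50 of the 460 nm signal alone; lower values mean a more potent effect. A falling signal goes with compounds filed as inhibitors or cytotoxic, a rising one with activators or fluorescent compounds (inferred from the filed classes).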

Values are in µM.
Common to all entries: measured here: 460 nm channel.
Part of the compounds only, not a random draw; the main read-out is not listed here.
Potencies fitted to partial, single-point or poorly fitting curves are rough.
The first word of each remark tells which way the curve ran; it can be opposite to the aim of the assay.

{"compound": "COc1ccccc1CN1CCC2(CC1)CCN(C(=O)c1csnn1)CC2", "AC50 (µM)": "1", "curve": "falling, single point"}
{"compound": "CCCC[C@@H]1C[C@H]1C(NC(=O)c1ccco1)c1ccc(Cl)cc1", "stereo": "some centres undefined", "AC50 (µM)": "15.85", "curve": "falling, partial curve"}
{"compound": "CCNc1ncc2nc(-c3ccc(OC)cc3)c(=O)n(Cc3cccc(OC)c3)c2n1", "AC50 (µM)": "0.5012", "curve": "rising, full curve"}
{"compound": "Cc1nc2n(n1)C(c1ccccc1)C1=C(CC(c3ccco3)CC1=O)N2", "stereo": "centres undefined", "AC50 (µM)": "0.01", "curve": "rising, full curve, poor fit"}
{"compound": "CC/C(=C\\C(=O)c1cccnc1)Nc1ccc(C)c(C)c1", "AC50 (µM)": "31.62", "curve": "rising, partial curve"}
{"compound": "CCCn1c(=O)n(C)c(=O)c2c(SCc3cc(C(C)=O)ccc3OCC)nc(C3CC3)nc21", "AC50 (µM)": "5.012", "curve": "rising, full curve"}
{"compound": "O=C(C1CCN(c2ccc(N3CCOCC3)nn2)CC1)N1CCN(c2ccc(F)cc2)CC1", "AC50 (µM)": "2.512", "curve": "rising, full curve"}
{"compound": "O=C(COc1ccc(-n2cnnn2)cc1)NCCc1ccc(F)cc1", "AC50 (µM)": "5.012", "curve": "rising, partial curve"}
{"compound": "CCC(=O)OC1(c2cccc(C)c2)CC(C)N(C)CC1C", "stereo": "centres undefined", "AC50 (µM)": "0.631", "curve": "falling, full curve, poor fit"}
{"compound": "Oc1cc(Cl)c(Cl)cc1Cl", "AC50 (µM)": "15.85", "curve": "falling, partial curve, poor fit"}
{"compound": "CCOc1ccc(OCCSc2nnnn2C2CCCCC2)cc1", "AC50 (µM)": "10", "curve": "falling, partial curve"}
{"compound": "COC(=O)Cc1c(C)c2ccc(OC(=O)c3ccco3)cc2oc1=O", "AC50 (µM)": "25.12", "curve": "rising, single point"}
{"compound": "COc1ccc2[nH]cc(CCNc3ncnc4ccc(-c5ccccc5OC)cc34)c2c1", "AC50 (µM)": "25.12", "curve": "falling, single point"}
{"compound": "Cc1nn(C(=O)c2ccc3c(c2)OCO3)c(N)c1-c1ccccc1", "AC50 (µM)": "19.95", "curve": "falling, partial curve"}
{"compound": "O=C(NCC1COc2ccccc2O1)C1CCC(CNc2c(N3CCCCC3)c(=O)c2=O)CC1", "stereo": "centres undefined", "AC50 (µM)": "10", "curve": "rising, partial curve"}
{"compound": "O=C(CN1CCCC1)Nc1ccc(-c2nc3cc(NC(=O)CN4CCCC4)ccc3o2)cc1", "AC50 (µM)": "1.259", "curve": "falling, full curve"}
{"compound": "Cc1ccc(S(=O)(=O)Oc2ccc(N=Nc3ccc(-c4ccc(N=Nc5c(O)ccc6cc(S(=O)(=O)O)cc(S(=O)(=O)O)c56)c(C)c4)cc3C)cc2)cc1", "AC50 (µM)": "15.85", "curve": "falling, partial curve"}
{"compound": "CC(=O)N1CCC2(CCCN(Cc3cc(C(F)(F)F)cc(C(F)(F)F)c3)C2)CC1", "AC50 (µM)": "15.85", "curve": "rising, single point"}
{"compound": "Cc1cc(C)n(-c2ccc(C(=O)Nc3ccc(S(=O)(=O)NCc4ccco4)cc3)cc2)n1", "AC50 (µM)": "10", "curve": "falling, single point"}
{"compound": "CCCCOC(=O)Nc1sc2c(c1C(=O)OC)CCC2", "AC50 (µM)": "10", "curve": "falling, single point"}
{"compound": "Cc1ncc(CNC(=O)N(CCCl)N=O)c(N)n1", "AC50 (µM)": "12.59", "curve": "rising, single point"}
{"compound": "O=C(Cc1cc(=O)[nH]c(=O)[nH]1)NCC1CCCO1", "stereo": "centres undefined", "AC50 (µM)": "3.981", "curve": "falling, full curve"}
{"compound": "O=C(CN(c1ccc2c(c1)OCCO2)S(=O)(=O)c1ccccc1)Nc1ccc2c(c1)OCO2", "AC50 (µM)": "12.59", "curve": "falling, single point"}
{"compound": "Cc1cc(C)nc(-n2nc(C)cc2NC(=O)CN2CCCC(C)C2)n1", "stereo": "centres undefined", "AC50 (µM)": "25.12", "curve": "falling, single point"}
{"compound": "O=c1cc(-c2ccccc2)oc2cc(O)c(O)c(O)c12", "AC50 (µM)": "1.259", "curve": "falling, full curve"}
{"compound": "CN(C)S(=O)(=O)c1cccc(C(=O)OCC(=O)N2c3ccccc3NC(=O)C2(C)C)c1", "AC50 (µM)": "5.012", "curve": "rising, single point"}
{"compound": "COC(=O)[C@@]1(Cc2ccccc2)[C@H]2c3cc(C(=O)N4CCCC4)n(Cc4cc(F)cc5c4OCOC5)c3C[C@H]2CN1C(=O)c1ccccc1", "AC50 (µM)": "5.012", "curve": "rising, single point"}
{"compound": "CCOc1ccc(OCC)c(S(=O)(=O)N2CCCCC2C)c1", "stereo": "centres undefined", "AC50 (µM)": "15.85", "curve": "rising, single point"}
{"compound": "Cc1cc(C)n2nc(CC(=O)NC3CCCC(C)C3C)nc2n1", "stereo": "centres undefined", "AC50 (µM)": "6.31", "curve": "falling, partial curve, poor fit"}
{"compound": "COc1ccc(NC(=O)CSc2nnc(-c3cccnc3)n2Cc2ccco2)c(OC)c1", "AC50 (µM)": "12.59", "curve": "rising, single point"}
{"compound": "O=c1c(CCc2ccccc2)nc2cnc(N3CCNCC3)nc2n1-c1ccccc1", "AC50 (µM)": "10", "curve": "rising, partial curve"}
{"compound": "c1ccc(-n2c(SCC3CCCCO3)nnc2-c2cccs2)cc1", "stereo": "centres undefined", "AC50 (µM)": "3.981", "curve": "rising, single point"}
{"compound": "[N-]=[N+]=CC(=O)CC(c1ccccc1)N1C(=O)c2ccccc2C1=O", "stereo": "centres undefined", "AC50 (µM)": "31.62", "curve": "rising, single point"}
{"compound": "COC(=O)c1[nH]c2cc(OC)ccc2c1NC(=O)CCN1CCN(c2cccc(C)c2C)CC1", "AC50 (µM)": "0.631", "curve": "falling, full curve, poor fit"}
{"compound": "CCN1CCCC1CNC(=O)COc1cc(=O)n(C)c2ccccc12", "stereo": "centres undefined", "AC50 (µM)": "5.012", "curve": "rising, single point"}
{"compound": "COc1ccccc1CNC(=O)C(NC(=O)C1CCCCC1)C(C)C", "stereo": "centres undefined", "AC50 (µM)": "3.981", "curve": "rising, single point"}
{"compound": "Cc1ccc(CCNC(=O)C2CCN(S(=O)(=O)N3CCCC3)CC2)cc1", "AC50 (µM)": "0.003981", "curve": "falling, full curve, poor fit"}

Some entries from above, unchanged:

{"compound": "CN(C)S(=O)(=O)c1cccc(C(=O)OCC(=O)N2c3ccccc3NC(=O)C2(C)C)c1", "AC50 (µM)": "5.012", "curve": "rising, single point"}
{"compound": "O=C(CN1CCCC1)Nc1ccc(-c2nc3cc(NC(=O)CN4CCCC4)ccc3o2)cc1", "AC50 (µM)": "1.259", "curve": "falling, full curve"}
{"compound": "Cc1cc(C)nc(-n2nc(C)cc2NC(=O)CN2CCCC(C)C2)n1", "stereo": "centres undefined", "AC50 (µM)": "25.12", "curve": "falling, single point"}
{"compound": "CCCCOC(=O)Nc1sc2c(c1C(=O)OC)CCC2", "AC50 (µM)": "10", "curve": "falling, single point"}
{"compound": "COc1ccccc1CNC(=O)C(NC(=O)C1CCCCC1)C(C)C", "stereo": "centres undefined", "AC50 (µM)": "3.981", "curve": "rising, single point"}

The results are deposited in PubChem (AID912; NCATS, 2007).